From patent publication US20180214514A1
Results are given in words; binding and its absence hold for the method and conditions named. Some entries that bind do so weakly or less than the wild type.

Chains of the proteins cited; added tags and fusions are not shown. Lines headed by an entry give the natural chain unless they say otherwise; changes in a name come on top. Residues count along the entry.
UniProt P09038, residues 134-288: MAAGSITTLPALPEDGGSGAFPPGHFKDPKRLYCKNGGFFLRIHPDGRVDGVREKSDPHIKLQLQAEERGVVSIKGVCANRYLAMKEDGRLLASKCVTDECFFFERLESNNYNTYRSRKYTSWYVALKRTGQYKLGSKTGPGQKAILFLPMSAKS
UniProt Q8TAT2: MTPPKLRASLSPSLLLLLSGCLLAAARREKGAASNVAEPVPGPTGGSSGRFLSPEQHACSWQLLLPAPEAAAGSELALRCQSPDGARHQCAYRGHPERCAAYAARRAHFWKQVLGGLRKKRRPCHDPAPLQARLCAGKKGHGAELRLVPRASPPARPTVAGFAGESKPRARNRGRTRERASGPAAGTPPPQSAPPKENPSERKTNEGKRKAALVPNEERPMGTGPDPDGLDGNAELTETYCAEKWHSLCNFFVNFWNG

Target: human recombinant FGF2 (human) (UniProt P09038)
Assay: SPR, C66 over immobilized FGF2 (FIG. 7B)

Question: Which binding does the source give for “MBP-tagged C66 fusion protein (C-terminal 66-amino acid FGF-binding domain of human BP3) (from UniProt Q8TAT2 193-258)” here?
Answer: The binding was “binds”.
